Laboratory results: PubChem BioAssay AID743458 (Peter MacCallum Cancer Centre, 2014)
The whole screen tested about 1,800 reagents; below is an unselected part. 732 of all reagents (41%) count as active. 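Calls are per siRNA reagent; a gene was deemed confirmed only if most of its four siRNAs scored.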 Reagents against one gene are numbered here.

Aim: 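Identify genes whose loss lifts vorinostat resistance in colon cancer cells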 (follow-up of hits)
System: human HCT116-VR colon cancer cells made resistant to vorinostat
Reagent: single siRNA or pool against human genes, 25 nM per single siRNA
Duration: about 72 h after transfection, including 24 h of drug
Challenge: vorinostat, 2.5 µM final, for 24 h
Measurement: 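Live-cell fluorescent viability and luminescent caspase 3/7 activity after vorinostat treatment, background subtracted, mean of duplicate plates, as fold change over mock-transfected wells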
Direction: viability relative to mock: higher = more living cells than mock; caspase activity relative to mock: higher = more apoptosis than mock
Active means: 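An siRNA counts as active if classed as reduced viability or as caspase activation, otherwise inactive; a hit class needed wells that remained healthy in the absence of drug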

| gene symbol | reagent no. | viability relative to mock | caspase activity relative to mock | viability hit class | caspase hit class | outcome |
| --- | --- | --- | --- | --- | --- | --- |
| NSF (N-ethylmaleimide sensitive factor, vesicle fusing ATPase) | 1 | 1.14 | 2.3 | no change | no change | inactive |
| NSF (N-ethylmaleimide sensitive factor, vesicle fusing ATPase) | 2 | 0.92 | 1.94 | no change | no change | inactive |
| NSF (N-ethylmaleimide sensitive factor, vesicle fusing ATPase) | 3 | 0.71 | 2.95 | no change | caspase activation | active |
| NSF (N-ethylmaleimide sensitive factor, vesicle fusing ATPase) | 4 | 0.92 | 1.23 | no change | no change | inactive |
| DNAI4 (dynein axonemal intermediate chain 4) | 1 | 0.5 | 3.08 | reduced viability | caspase activation | active |
| DNAI4 (dynein axonemal intermediate chain 4) | 2 | 0.84 | 1.09 | no change | no change | inactive |
| DNAI4 (dynein axonemal intermediate chain 4) | 3 | 0.72 | 1.32 | no change | no change | inactive |
| DNAI4 (dynein axonemal intermediate chain 4) | 4 | 0.8 | 0.82 | no change | no change | inactive |
| CALM3 (calmodulin 3) | 1 | 0.42 | 5.62 | reduced viability | caspase activation | active |
| CALM3 (calmodulin 3) | 2 | 0.86 | 1.86 | no change | no change | inactive |
| CALM3 (calmodulin 3) | 3 | 0.68 | 1.17 | no change | no change | inactive |
| CALM3 (calmodulin 3) | 4 | 0.96 | 1.38 | no change | no change | inactive |
| B4GALT4 (beta-1,4-galactosyltransferase 4) | 1 | 0.96 | 1.27 | no change | no change | inactive |
| B4GALT4 (beta-1,4-galactosyltransferase 4) | 2 | 0.72 | 1.27 | no change | no change | inactive |
| B4GALT4 (beta-1,4-galactosyltransferase 4) | 3 | 0.74 | 1.37 | no change | no change | inactive |
| B4GALT4 (beta-1,4-galactosyltransferase 4) | 4 | 0.87 | 1.02 | no change | no change | inactive |
| ZNF497 (zinc finger protein 497) | 1 | 0.88 | 3.37 | no change | caspase activation | active |
| ZNF497 (zinc finger protein 497) | 2 | 0.74 | 2 | no change | no change | inactive |
| ZNF497 (zinc finger protein 497) | 3 | 1.11 | 1.7 | no change | no change | inactive |
| ZNF497 (zinc finger protein 497) | 4 | 0.3 | 3.03 | reduced viability | caspase activation | active |
| SLC10A3 | 1 | 0.86 | 1.2 | no change | no change | inactive |
| SLC10A3 | 2 | 0.39 | 7.72 | reduced viability | caspase activation | active |
| SLC10A3 | 3 | 0.84 | 1.25 | no change | no change | inactive |
| SLC10A3 | 4 | 0.69 | 1 | no change | no change | inactive |
| CSE1L (chromosome segregation 1 like) | 1 | 0.48 | 2.97 | reduced viability | caspase activation | active |
| CSE1L (chromosome segregation 1 like) | 2 | 0.4 | 4.87 | reduced viability | caspase activation | active |
| CSE1L (chromosome segregation 1 like) | 3 | 0.68 | 6.13 | no change | caspase activation | active |
| CSE1L (chromosome segregation 1 like) | 4 | 0.81 | 1.14 | no change | no change | inactive |
| RNF181 (ring finger protein 181) | 1 | 0.98 | 1.58 | no change | no change | inactive |
| RNF181 (ring finger protein 181) | 2 | 0.92 | 1.66 | no change | no change | inactive |
| RNF181 (ring finger protein 181) | 3 | 0.94 | 1.08 | no change | no change | inactive |
| RNF181 (ring finger protein 181) | 4 | 0.8 | 1.25 | no change | no change | inactive |
| SCLY (selenocysteine lyase) | 1 | 0.9 | 1.08 | no change | no change | inactive |
| SCLY (selenocysteine lyase) | 2 | 0.94 | 1.4 | no change | no change | inactive |
| SCLY (selenocysteine lyase) | 3 | 0.82 | 3.32 | no change | caspase activation | active |
| SCLY (selenocysteine lyase) | 4 | 0.53 | 6.14 | reduced viability | caspase activation | active |
| POLR2I (RNA polymerase II subunit I) | 1 | 0.46 | 5.87 | reduced viability | caspase activation | active |
| POLR2I (RNA polymerase II subunit I) | 2 | 0.6 | 4.2 | no change | caspase activation | active |
| POLR2I (RNA polymerase II subunit I) | 3 | 0.64 | 1.96 | no change | no change | inactive |
| POLR2I (RNA polymerase II subunit I) | 4 | 0.63 | 4.23 | no change | caspase activation | active |
| USP45 (ubiquitin specific peptidase 45) | 1 | 0.34 | 3.04 | reduced viability | caspase activation | active |
| USP45 (ubiquitin specific peptidase 45) | 2 | 0.9 | 1.84 | no change | no change | inactive |
| USP45 (ubiquitin specific peptidase 45) | 3 | 1.02 | 1.82 | no change | no change | inactive |
| USP45 (ubiquitin specific peptidase 45) | 4 | 1.04 | 1.26 | no change | no change | inactive |

The list goes on (2 carried over from the part before).
| gene symbol | reagent no. | viability relative to mock | caspase activity relative to mock | viability hit class | caspase hit class | outcome |
| --- | --- | --- | --- | --- | --- | --- |
| USP45 (ubiquitin specific peptidase 45) | 3 | 1.02 | 1.82 | no change | no change | inactive |
| USP45 (ubiquitin specific peptidase 45) | 4 | 1.04 | 1.26 | no change | no change | inactive |
| FN3KRP (fructosamine 3 kinase related protein) | 1 | 0.75 | 1.48 | no change | no change | inactive |
| FN3KRP (fructosamine 3 kinase related protein) | 2 | 0.9 | 1.5 | no change | no change | inactive |
| FN3KRP (fructosamine 3 kinase related protein) | 3 | 0.94 | 2.34 | no change | no change | inactive |
| FN3KRP (fructosamine 3 kinase related protein) | 4 | 0.98 | 3.62 | no change | caspase activation | active |
| MED20 (mediator complex subunit 20) | 1 | 0.79 | 1.6 | no change | no change | inactive |
| MED20 (mediator complex subunit 20) | 2 | 0.55 | 4.64 | reduced viability | caspase activation | active |
| MED20 (mediator complex subunit 20) | 3 | 0.62 | 0.72 | no change | no change | inactive |
| MED20 (mediator complex subunit 20) | 4 | 0.95 | 1.83 | no change | no change | inactive |
| FABP6 (fatty acid binding protein 6) | 1 | 0.94 | 0.82 | no change | no change | inactive |
| FABP6 (fatty acid binding protein 6) | 2 | 0.23 | 2.64 | reduced viability | caspase activation | active |
| FABP6 (fatty acid binding protein 6) | 3 | 0.76 | 0.93 | no change | no change | inactive |
| FABP6 (fatty acid binding protein 6) | 4 | 0.78 | 0.78 | no change | no change | inactive |
| KIR2DL1 | 1 | 0.62 | 6.96 | no change | caspase activation | active |
| KIR2DL1 | 2 | 0.97 | 4 | no change | caspase activation | active |
| KIR2DL1 | 3 | 0.12 | 2.72 | reduced viability | caspase activation | active |
| KIR2DL1 | 4 | 0.8 | 1.79 | no change | no change | inactive |
| PLEKHB1 (pleckstrin homology domain containing B1) | 1 | 0.85 | 1.04 | no change | no change | inactive |
| PLEKHB1 (pleckstrin homology domain containing B1) | 2 | 0.24 | 2.36 | no change | no change | inactive |
| PLEKHB1 (pleckstrin homology domain containing B1) | 3 | 0.5 | 2.06 | reduced viability | no change | active |
| PLEKHB1 (pleckstrin homology domain containing B1) | 4 | 0.68 | 1.02 | no change | no change | inactive |
| POLR2K (RNA polymerase II, I and III subunit K) | 1 | 0.3 | 2.05 | reduced viability | no change | active |
| POLR2K (RNA polymerase II, I and III subunit K) | 2 | 0.5 | 1.84 | reduced viability | no change | active |
| POLR2K (RNA polymerase II, I and III subunit K) | 3 | 0.5 | 4.89 | reduced viability | caspase activation | active |
| POLR2K (RNA polymerase II, I and III subunit K) | 4 | 0.92 | 1.53 | no change | no change | inactive |
| SH3GLB2 (SH3 domain containing GRB2 like, endophilin B2) | 1 | 1 | 1.21 | no change | no change | inactive |
| SH3GLB2 (SH3 domain containing GRB2 like, endophilin B2) | 2 | 0.76 | 4.17 | no change | caspase activation | active |
| SH3GLB2 (SH3 domain containing GRB2 like, endophilin B2) | 3 | 0.62 | 3.37 | no change | caspase activation | active |
| SH3GLB2 (SH3 domain containing GRB2 like, endophilin B2) | 4 | 0.62 | 3.6 | no change | caspase activation | active |
| SLU7 (spliceosome associated SLU7) | 1 | 0.38 | 1.4 | reduced viability | no change | active |
| SLU7 (spliceosome associated SLU7) | 2 | 0.29 | 2.79 | reduced viability | caspase activation | active |
| SLU7 (spliceosome associated SLU7) | 3 | 0.44 | 2.54 | reduced viability | no change | active |
| SLU7 (spliceosome associated SLU7) | 4 | 0.45 | 2.55 | reduced viability | no change | active |
